Consider one substance from article PMC7072528.

By UniProt entry, the sequences of proteins in these tests, tags left out. Residues count along the entry.
UniProt P11021, residues 19-654: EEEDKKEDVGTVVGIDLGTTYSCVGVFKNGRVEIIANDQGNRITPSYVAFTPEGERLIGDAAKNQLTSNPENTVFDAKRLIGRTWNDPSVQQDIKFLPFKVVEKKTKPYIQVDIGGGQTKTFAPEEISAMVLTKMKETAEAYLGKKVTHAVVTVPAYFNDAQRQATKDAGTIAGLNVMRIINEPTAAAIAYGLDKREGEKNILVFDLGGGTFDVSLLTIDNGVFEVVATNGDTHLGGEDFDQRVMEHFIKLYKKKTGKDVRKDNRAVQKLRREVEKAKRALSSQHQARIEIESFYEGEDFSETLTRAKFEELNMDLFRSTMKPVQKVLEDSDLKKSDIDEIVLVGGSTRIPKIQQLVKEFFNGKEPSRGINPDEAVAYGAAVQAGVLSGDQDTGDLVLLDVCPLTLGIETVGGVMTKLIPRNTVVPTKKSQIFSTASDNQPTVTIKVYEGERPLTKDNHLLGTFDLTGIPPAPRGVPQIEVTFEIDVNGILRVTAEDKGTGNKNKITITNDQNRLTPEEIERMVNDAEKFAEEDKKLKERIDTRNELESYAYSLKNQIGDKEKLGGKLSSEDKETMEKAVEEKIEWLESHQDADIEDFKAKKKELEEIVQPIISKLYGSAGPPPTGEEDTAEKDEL
UniProt P27986: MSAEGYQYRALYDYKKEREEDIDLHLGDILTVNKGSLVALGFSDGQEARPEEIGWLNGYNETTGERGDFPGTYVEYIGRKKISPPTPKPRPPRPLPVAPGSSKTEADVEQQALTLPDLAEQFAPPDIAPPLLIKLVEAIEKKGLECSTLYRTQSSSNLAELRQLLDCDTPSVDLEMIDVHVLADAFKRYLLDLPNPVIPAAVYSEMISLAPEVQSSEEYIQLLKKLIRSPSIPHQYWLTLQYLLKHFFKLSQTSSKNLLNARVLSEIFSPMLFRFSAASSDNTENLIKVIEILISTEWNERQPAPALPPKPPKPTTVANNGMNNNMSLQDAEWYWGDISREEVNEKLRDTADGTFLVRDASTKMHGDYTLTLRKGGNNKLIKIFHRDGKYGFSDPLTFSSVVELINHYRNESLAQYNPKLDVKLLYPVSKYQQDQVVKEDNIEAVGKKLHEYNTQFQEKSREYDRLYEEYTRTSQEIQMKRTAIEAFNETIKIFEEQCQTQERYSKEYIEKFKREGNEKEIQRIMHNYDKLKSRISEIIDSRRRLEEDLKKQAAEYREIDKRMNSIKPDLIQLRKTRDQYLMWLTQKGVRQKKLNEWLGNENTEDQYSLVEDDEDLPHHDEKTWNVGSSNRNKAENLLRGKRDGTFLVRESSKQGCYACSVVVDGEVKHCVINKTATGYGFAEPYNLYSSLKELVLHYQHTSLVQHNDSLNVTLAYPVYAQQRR

The test addresses GRP78, ectopically expressed (pGRP78) (UniProt P11021). Description: co-IP; cell surface-biotinylated proteins from DRM fractions, isolated with streptavidin-agarose beads, then immunoprecipitated with anti-GRP78; control vector- or GRP78-transfected cells, vehicle or TSWU-BR4.

Results are given in words; binding and its absence hold for the method and conditions named. In cells and extracts the contact can be indirect. Some results given as binding are weak or reduced against the parent protein; the word gives no strength.

Consider “PI3K regulatory subunit p85α (from UniProt P27986 1-724)”, for which the binding result is on record as “binds”.
